Columns and labels:
[1] = Determination of temperature optimum; format: biochemical; settings: pNP-caproate, tested 25° C. to 70° C.
[2] = Determination of pH optimum by titration; format: biochemical; settings: tributyrin 2 mM, 37° C., range pH 4 to 11
Protocol: The pH optimum for the enzymes was determined using tributyrin as substrate. The incubation conditions were 20 ml buffer (2.5 mM phosphate buffer [pH 4-7], 2.5 mM Tris/HCl buffer [pH 7-11] or 2.5 mM glycine buffer [pH 9-11], supplemented with 100 mM NaCl) stirred at a constant temperature of 37° C. The esterase substrate tributyrin (final concentration of 2 mM) was added to 5 ml of the corresponding buffer at 37° C., emulsified and added to the whole preparation. This substrate emulsion was held constant at the correct pH automatically by the titrator (718 STAT Titrino; Metrohm, Herisau, Switzerland) for 2 min and this served as the control. […]

Molecule	temperature of maximum activity [1]	pH below which no activity [2]	pH of highest activity [2]
EstA3: recombinant enzyme having carboxyl esterase activity, amino acid sequence SEQ ID NO: 2, family VIII of bacterial lipolytic enzymes (protein, metagenomic sequence) MSAEELGFLPDRLARISDHIQTNYLDNGKLPFASLLIGRGDDIALQWSSGVADDAIFRIASMTKPVTSVAFMQLVEQGKVALTDPVAKYIPEFAKLGVFVAGGGNIPFVSRPPTMPMRIVDVLRHTTGFTYSFQERSNIDAAYRKTDVESWTRSTSQSFIDTLAEIPLEFDPGTQWNYSVSTDVLGILIERISGQSLPDYFRDHIFAPLGMVDTCFTVPADKAARIPQCFAFDPATKMKLFDEAGASSLWTKGWSFNSGGGGLASSVADYHRFCRMLLNGGALDGIQIISPKTLELMTANHLPGGQDLTQMSKSLFSEAEMAGIGFGLGFATTIDSVATLTPCSTGDFYWGGMYSTAFFVDPVEDIIMIFMTQLMPSSTYPVRREIKTMIYSALAA	47 °C	4 pH	9 pH
EstCL1: recombinant enzyme having carboxyl esterase activity, amino acid sequence SEQ ID NO: 6, family IV of bacterial lipolytic enzymes (protein, metagenomic sequence) MTDPYVRPDVAMFLAFLNNAPGPKLHELSAPEARMVQNAMRDMADAPVGELAVMRDLEIPGPAGTIMARLYDKQPGRGSGPAMVFFHGGGFVIGNIHTYEPFCAEVARLLDLPVISVEYRLGPESPFPAAFEDCEAAARWVASKPEALGFDVSGLILSGDSAGGNLTISTSMALRDVAAGVPVIAQMPIYPVVTLDPDWPSMRDFADGYLLTAELIQWFGDGHGASGEDYRTHPLDFDQSGMPPTVITTASLDPLRDQGMAYFEKLKAAGVRAEHISAEGNIHGHINVRKGIPSSQQDVEGYVTALTAMLAGVMAEA		6 pH	8 pH
EstCE1: recombinant enzyme having carboxyl esterase activity, amino acid sequence SEQ ID NO: 4, family VIII of bacterial lipolytic enzymes (protein, metagenomic sequence) MSIADQSLAKRVQGVSQQAIDEGRIVGSVVLIARHGRVIYANASGYADREQKKPMVRETQFRLSSVSKPYITLAAMRMIEQQKLGLDDTVSRWLPWFTPALADGVRPPIKIRHLLSHTAGLDYRLSQPAEGPYHRLGIKDGMELSSLTLEQNLRLLAQADLLAEPGSEFRYSLAIDVLGAVLEQVAGEPLPQVFNHWVAQPLGLRNTGFYTTDVDNLATAYHDTAAEPEPIRDGMLLTLPEGFGFEIELAPSRALDAQAYPSGGAGMVGDADDVLQLVETLRTGKEGILQPATAALMRQAHVGSHAETQGPGWGFGFGGAVLEDAQLAATPQHNGTLQWGGVYGHSWFYDPQAAISVVALTNTAFEGMSGRYPLQIRDAVYGTNEPTR	50 °C	5 pH	10 pH
